Laboratory results: PMC4416315
No constants are given. Whether binding was seen depends on the method and setting. In cells and extracts the contact can be indirect. A result given as binding can be weak or reduced; the word gives no strength.

The chains behind the UniProt entries cited, without tags or fusion partners. Where a name states a change or a piece, a line headed by the entry shows the natural chain unless it says otherwise.
UniProt Q9NVI1: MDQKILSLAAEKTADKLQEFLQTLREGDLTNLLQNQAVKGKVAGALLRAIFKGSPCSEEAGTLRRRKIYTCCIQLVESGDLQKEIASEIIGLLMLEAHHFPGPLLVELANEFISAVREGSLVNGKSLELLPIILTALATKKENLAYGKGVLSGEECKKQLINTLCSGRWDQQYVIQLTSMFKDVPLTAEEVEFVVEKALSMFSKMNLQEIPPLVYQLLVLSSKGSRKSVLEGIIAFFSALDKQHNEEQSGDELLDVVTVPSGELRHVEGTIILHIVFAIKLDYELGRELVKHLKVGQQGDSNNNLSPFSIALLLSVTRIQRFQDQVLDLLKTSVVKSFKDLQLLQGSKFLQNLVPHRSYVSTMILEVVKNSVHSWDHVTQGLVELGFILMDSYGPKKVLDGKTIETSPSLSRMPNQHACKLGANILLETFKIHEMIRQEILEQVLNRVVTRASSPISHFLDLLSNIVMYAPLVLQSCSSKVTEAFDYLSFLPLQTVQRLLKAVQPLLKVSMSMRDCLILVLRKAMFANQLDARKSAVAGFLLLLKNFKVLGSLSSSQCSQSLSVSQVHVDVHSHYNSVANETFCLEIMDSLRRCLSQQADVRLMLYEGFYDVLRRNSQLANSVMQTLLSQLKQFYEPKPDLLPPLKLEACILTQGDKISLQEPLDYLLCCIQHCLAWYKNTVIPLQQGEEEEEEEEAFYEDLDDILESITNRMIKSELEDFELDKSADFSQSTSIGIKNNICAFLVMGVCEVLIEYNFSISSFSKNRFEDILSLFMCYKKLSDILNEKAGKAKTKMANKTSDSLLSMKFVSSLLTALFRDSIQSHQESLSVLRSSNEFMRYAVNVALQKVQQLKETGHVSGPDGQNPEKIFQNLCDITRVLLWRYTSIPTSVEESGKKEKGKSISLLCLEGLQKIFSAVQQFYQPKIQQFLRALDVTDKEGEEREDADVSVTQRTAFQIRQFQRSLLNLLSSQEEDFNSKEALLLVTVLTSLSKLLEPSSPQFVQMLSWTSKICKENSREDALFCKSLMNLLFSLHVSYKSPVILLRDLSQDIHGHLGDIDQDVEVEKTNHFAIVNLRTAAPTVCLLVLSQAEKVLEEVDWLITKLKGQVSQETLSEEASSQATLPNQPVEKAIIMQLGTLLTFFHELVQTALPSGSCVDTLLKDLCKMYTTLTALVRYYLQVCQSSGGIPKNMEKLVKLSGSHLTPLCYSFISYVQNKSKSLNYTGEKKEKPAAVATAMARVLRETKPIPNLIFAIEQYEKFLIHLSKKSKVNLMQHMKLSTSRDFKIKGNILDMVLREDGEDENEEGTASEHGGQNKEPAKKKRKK
UniProt Q9GZR1: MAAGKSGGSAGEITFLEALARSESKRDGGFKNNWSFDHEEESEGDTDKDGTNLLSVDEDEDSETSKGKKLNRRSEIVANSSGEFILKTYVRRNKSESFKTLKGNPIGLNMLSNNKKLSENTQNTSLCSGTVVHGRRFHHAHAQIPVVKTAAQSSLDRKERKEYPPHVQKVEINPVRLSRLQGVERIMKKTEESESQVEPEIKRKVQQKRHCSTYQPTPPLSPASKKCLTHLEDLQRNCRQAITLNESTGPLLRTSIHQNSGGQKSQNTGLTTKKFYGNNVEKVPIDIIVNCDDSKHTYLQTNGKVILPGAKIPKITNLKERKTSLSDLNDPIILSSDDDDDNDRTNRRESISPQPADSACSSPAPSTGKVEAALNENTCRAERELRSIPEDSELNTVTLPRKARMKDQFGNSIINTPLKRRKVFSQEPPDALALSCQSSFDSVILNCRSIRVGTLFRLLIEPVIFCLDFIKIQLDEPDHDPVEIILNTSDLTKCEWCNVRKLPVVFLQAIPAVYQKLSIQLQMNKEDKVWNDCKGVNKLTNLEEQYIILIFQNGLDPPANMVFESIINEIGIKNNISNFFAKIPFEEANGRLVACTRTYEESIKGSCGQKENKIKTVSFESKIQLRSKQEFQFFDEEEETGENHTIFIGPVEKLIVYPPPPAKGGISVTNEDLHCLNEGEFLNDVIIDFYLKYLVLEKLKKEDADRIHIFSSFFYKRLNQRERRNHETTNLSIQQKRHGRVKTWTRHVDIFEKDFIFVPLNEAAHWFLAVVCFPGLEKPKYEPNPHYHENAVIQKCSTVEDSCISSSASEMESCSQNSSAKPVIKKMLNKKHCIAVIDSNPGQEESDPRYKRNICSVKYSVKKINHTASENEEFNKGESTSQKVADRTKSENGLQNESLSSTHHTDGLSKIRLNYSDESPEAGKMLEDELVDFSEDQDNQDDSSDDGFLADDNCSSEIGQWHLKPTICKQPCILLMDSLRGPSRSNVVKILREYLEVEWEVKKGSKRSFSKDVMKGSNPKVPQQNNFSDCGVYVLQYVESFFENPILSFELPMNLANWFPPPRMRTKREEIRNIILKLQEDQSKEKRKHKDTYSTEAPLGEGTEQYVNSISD

Target: GFP-FANCI (UniProt Q9NVI1)
Assay: co-IP; GFP IP from U2OS cells cotransfected with GFP-FANCI and HA-SENP6^CI, treated with MMC (0.3 μM); immunoblotting

binding: binds
Substance: HA-SENP6^CI (catalytically inactive SENP6 mutant) (from UniProt Q9GZR1) (enzyme)
